From patent US8383816B2, “Aryl-quinolyl compounds and their use” (Cancer Research Technology Limited, priority 2008, dated 2013)
Some entries share one result that the patent states for a list of compounds.

Chains of the proteins cited; added tags and fusions are not shown.
UniProt P15056, whole entry V600D: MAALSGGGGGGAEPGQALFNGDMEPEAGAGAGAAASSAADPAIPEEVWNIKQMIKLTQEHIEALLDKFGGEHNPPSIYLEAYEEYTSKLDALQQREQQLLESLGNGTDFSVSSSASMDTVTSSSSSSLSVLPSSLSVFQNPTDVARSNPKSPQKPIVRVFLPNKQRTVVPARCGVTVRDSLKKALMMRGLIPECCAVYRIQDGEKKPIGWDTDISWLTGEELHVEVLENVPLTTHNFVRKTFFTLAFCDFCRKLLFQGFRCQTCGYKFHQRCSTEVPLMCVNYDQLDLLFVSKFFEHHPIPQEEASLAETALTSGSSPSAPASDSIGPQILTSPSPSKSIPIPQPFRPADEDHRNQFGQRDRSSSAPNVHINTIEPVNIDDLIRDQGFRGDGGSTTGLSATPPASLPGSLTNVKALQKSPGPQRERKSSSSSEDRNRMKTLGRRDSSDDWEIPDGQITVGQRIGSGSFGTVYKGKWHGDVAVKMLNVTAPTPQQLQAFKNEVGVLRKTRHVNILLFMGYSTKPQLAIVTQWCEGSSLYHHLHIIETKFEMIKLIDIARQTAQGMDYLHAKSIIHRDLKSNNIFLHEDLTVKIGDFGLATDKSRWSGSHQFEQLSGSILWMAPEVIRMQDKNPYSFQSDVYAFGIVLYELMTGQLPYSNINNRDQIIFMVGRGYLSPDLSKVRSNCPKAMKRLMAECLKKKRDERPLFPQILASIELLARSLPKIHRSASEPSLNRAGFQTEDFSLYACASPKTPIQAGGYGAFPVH

Target: BRAF (Homo sapiens, UniProt P15056)
Assay: BRAF Cell Based IP Assay
Conditions: WM266.4 cells treated for 6 hours, BRAF immunoprecipitated

| IC50 [nM] | Compound |
| --- | --- |
| ≤ 1000 | CC(C)(C)c1cc(NC(=O)Nc2ccc(Oc3ccnc4[nH]c(=O)cnc34)c3cccnc23)n(-c2ccccc2)n1 [BB-008, 5-[(8-Amino-quinolinyl-5-oxy)carbonylamino-5-(1-N-phenyl-3-t-butyl-imidazolyl)]-pyridin-[2,3]pyrazin-2-one] |
| ≤ 1000 | Cc1ccc(-n2nc(C(C)(C)C)cc2NC(=O)Nc2ccc(Oc3ccnc4[nH]c(=O)n(C)c34)c3cccnc23)cc1 [AA-011, 4-[(5-Oxy-quinolinyl-8-amino)carbonyl-amino-(1-N-p-tolyl-3-t-butyl-pyrazol-5-yl)]-pyridin-5-N-methyl,6-imidazolone] |
| ≤ 1000 | Cc1ccc(-n2nc(C(C)(C)C)cc2NC(=O)Nc2ccc(Oc3ccnc4[nH]c(=O)cnc34)c3cccnc23)cc1 [BB-007, 5-[(8-Amino-quinolinyl-5-oxy)carbonylamino-5-(1-N-p-tolyl-3-t-butyl-imidazolyl)]-pyridin-[2,3]pyrazin-2-one] |
| ≤ 1000 | Cc1nc2c(Oc3ccc(NC(=O)Nc4cc(C(C)(C)C)nn4-c4ccccc4)c4ncccc34)ccnc2[nH]c1=O [BB-003, 5-[(8-Amino-quinolinyl-5-oxy)carbonylamino-5-(1-N-p-phenyl-3-t-butyl-imidazolyl)]-pyridin-[2,3]-3-methylpyrazin-2-one] |
